The target of test [1] is T1, Melanophilin (mouse (endogenous in Melan-a)) (UniProt Q91V27).
T1 sequence: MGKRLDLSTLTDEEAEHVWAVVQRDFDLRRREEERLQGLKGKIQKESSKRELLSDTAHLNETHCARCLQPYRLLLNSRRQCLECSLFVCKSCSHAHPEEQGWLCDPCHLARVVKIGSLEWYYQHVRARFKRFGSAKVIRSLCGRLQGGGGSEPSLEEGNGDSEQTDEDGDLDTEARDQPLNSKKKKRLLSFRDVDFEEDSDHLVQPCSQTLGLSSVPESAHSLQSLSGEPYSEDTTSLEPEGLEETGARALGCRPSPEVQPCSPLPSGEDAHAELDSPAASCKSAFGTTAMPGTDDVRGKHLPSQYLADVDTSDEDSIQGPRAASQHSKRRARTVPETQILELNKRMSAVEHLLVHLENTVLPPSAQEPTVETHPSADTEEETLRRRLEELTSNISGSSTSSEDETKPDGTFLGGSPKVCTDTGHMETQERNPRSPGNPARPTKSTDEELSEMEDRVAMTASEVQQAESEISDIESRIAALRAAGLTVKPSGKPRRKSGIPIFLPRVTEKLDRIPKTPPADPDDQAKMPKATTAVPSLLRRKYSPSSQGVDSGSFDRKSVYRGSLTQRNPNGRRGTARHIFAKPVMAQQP
Briefly: proximity ligation; Duolink in situ PLA on fixed Melan-a melanocytes, primary antibodies 1:50 overnight 4 °C, anti-rabbit plus and anti-mouse minus probes, fluorescence microscopy.

The chains behind the UniProt entries cited, without tags or fusion partners.
UniProt Q99104: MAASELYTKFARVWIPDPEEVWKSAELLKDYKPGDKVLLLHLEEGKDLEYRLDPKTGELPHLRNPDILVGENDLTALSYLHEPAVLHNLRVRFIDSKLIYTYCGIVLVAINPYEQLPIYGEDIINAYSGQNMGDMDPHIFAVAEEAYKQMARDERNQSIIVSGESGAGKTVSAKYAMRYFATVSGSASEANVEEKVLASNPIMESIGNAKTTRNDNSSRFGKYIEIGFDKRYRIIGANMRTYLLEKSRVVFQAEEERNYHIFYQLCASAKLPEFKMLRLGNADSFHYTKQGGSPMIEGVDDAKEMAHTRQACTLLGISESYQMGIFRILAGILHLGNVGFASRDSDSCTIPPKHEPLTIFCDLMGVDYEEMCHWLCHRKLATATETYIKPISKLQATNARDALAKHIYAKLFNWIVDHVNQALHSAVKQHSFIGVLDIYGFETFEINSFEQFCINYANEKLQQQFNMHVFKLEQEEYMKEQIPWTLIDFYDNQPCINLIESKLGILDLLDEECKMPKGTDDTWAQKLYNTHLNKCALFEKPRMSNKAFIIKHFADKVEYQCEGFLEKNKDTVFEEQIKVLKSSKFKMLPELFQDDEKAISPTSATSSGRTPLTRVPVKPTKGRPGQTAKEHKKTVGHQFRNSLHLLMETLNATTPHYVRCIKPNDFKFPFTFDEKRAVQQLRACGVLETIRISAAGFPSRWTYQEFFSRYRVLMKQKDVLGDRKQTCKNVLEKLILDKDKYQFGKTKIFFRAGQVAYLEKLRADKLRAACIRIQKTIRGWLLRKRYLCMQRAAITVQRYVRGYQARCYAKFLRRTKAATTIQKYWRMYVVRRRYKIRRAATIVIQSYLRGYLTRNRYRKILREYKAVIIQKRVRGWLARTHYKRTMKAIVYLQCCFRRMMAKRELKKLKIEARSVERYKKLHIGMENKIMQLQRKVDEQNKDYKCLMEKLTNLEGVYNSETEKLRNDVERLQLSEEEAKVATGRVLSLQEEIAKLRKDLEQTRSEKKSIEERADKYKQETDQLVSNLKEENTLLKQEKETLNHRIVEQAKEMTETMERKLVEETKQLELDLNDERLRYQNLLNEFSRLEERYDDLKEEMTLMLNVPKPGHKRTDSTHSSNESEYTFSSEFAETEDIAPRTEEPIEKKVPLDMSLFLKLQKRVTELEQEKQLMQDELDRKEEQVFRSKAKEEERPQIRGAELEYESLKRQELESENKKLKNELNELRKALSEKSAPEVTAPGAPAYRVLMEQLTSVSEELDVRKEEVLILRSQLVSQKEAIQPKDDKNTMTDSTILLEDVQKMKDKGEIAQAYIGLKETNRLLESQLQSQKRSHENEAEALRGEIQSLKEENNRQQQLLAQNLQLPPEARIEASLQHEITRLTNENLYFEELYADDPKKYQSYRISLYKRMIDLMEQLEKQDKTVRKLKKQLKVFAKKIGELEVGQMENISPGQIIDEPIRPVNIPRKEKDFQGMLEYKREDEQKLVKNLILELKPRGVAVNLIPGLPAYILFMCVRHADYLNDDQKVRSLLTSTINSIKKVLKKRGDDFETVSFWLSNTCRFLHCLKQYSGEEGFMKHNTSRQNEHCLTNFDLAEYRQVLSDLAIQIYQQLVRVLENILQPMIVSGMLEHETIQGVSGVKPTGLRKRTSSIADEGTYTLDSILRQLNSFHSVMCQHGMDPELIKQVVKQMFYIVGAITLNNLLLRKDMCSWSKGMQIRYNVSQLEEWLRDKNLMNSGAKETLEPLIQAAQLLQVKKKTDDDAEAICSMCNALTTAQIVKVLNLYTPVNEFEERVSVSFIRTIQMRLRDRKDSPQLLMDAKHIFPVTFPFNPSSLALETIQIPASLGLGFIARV

Test [2] deals with Myosin-Va (mouse (endogenous in Melan-a)) (UniProt Q99104). Described as above.
The target in test [3] is T2, Rab27a (mouse (endogenous in Melan-a)) (UniProt Q9ERI2).
T2 sequence: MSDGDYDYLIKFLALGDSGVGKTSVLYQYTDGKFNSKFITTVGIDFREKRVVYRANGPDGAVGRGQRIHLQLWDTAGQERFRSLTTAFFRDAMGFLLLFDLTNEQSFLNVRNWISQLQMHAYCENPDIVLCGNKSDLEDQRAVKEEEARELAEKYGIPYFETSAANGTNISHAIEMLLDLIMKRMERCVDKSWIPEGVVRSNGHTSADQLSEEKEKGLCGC
The description is as above.

Test [4] concerns the target T2, Rab27a (mouse (endogenous in Melan-a)). Briefly: co-IP; whole cell lysates of Melan-a melanocytes, endogenous proteins; specific antibodies on protein A plus agarose beads, 4 °C overnight, western blot; control cells and cells with siMlph (20 nM, 72 h), Leaden (Mlph mutant) cells, Rab3GEP siRNA (50 nM), siPHB (20 nM). In general terms: A western blot detects proteins with antibodies after separation by electrophoresis.

Test [5] has as its target T3, prohibitin domain of PHB (amino acids 41-173), 6x histidine tagged (mouse) (UniProt P67778).
T3 sequence: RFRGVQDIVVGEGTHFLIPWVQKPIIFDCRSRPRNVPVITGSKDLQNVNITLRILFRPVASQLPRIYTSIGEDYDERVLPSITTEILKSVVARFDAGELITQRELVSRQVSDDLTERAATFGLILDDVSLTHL
In words: pull-down; purified His-tagged PHB (wild type or domain) mixed with whole cell extracts of Mlph- or Rab27a-transfected COS7 cells; poly-histidine antibody at 4 °C overnight, then protein A plus agarose beads 1 h at 4 °C; western blot; only the target purified.

Test [6] addresses T4, 6xHis-PHB expressed in COS7 cells (mouse) (UniProt P67778).
T4 sequence: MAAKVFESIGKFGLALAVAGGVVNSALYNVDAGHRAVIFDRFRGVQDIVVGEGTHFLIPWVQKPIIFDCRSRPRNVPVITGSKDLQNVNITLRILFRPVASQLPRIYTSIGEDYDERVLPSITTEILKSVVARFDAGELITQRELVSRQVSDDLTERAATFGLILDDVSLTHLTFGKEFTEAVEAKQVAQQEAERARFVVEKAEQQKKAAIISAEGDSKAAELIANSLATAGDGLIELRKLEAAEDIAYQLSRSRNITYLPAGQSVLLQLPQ
In words: co-IP; COS7 monkey kidney cells transfected with PHB and Mlph plasmids; anti-histidine IP for 3 h at 4 °C, western blot.

Test [7] concerns the target T5, transmembrane domain of PHB (amino acids 1-40), 6x histidine tagged (mouse) (UniProt P67778).
T5 sequence: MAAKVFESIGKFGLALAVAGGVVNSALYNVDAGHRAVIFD
Briefly: pull-down; purified His-tagged PHB (wild type or domain) mixed with whole cell extracts of Mlph- or Rab27a-transfected COS7 cells; poly-histidine antibody at 4 °C overnight, then protein A plus agarose beads 1 h at 4 °C; western blot; only the target purified.

Results are given in words; binding and its absence hold for the method and conditions named. Binding seen in cells or lysates may run through a third protein. Some entries that bind do so weakly or less than the wild type. For some of these results: Sequences can lack the tags named with a protein.

B1: Prohibitin (protein, UniProt P67778 1-272)
chain: T4 sequence
Take B1: the binding entry in test [1] is given as “binds”; in test [2] it was “no binding”; in test [3] it was “binds”; in test [4], “binds”.

B2: FLAG-Rab27a (protein, UniProt Q9ERI2 1-221)
chain: T2 sequence
For B2, in test [5], the binding result was “binds”.

B3: T7-Mlph (protein, UniProt Q91V27 1-590)
chain: T1 sequence
With B3, the binding entry in test [6] and in test [7] was “binds” throughout.
